PubChem BioAssay AID2685 (National Center for Advancing Translational Sciences (NCATS), 2010)
About 2,100 (0.66%) of roughly 320,000 compounds were called active. Inconclusive means that the source gave no clear call. Such entries were picked first, then a sample of the others. Calls come from the whole dose curve; as a rule, active = well fitted inhibition curve with a large enough effect in the signal ratio, with a control signal flat (not every such curve was filed as active); inconclusive = small, poorly fitted or top-dose-only effect, or effect the other way, or a change in a side signal; inactive = flat fitted curve, though single readings scatter; the % refers to the signal ratio. Potencies beside an inconclusive call are fits to weak or partial responses and may not hold up.
% is set by controls: 0 for no effect and ±100 for the full control effect; potency is the fitted concentration of half-maximal effect.

Test: qHTS Assay for Lipid Storage Modulators in Drosophila S3 Cells
Settings: BODIPY lipid droplet fluorescence, 18-24 h, cells fed with added oleic acid; lipid storage change, negative = inhibition: at 46.1 µM (top of the series) unless noted
How it was run: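 Drosophila S3 cells loaded with oleic acid (400 uM, as added) and compounds at several concentrations; lipid droplets imaged by 488-nm laser-scanning cytometry, 500–530 nm intensity and object ratio to cell channel. Percent activity normalized to 20 uM Triacsin C.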
For `C/C(=N/N=C(/N)SCc1ccccc1)C(C)(C)C`, the lipid storage change, negative = inhibition was inconclusive: -33.9% [at 0.369 µM].
For `O=C1C(Cl)=C(N2CCCC2)C(=O)N1c1ccc(F)cc1`, the lipid storage change, negative = inhibition was inconclusive: -14.9%.
In the case of `CCCCn1c(SCC(=O)Nc2nccs2)nc2ccccc2c1=O`, the lipid storage change, negative = inhibition is reported as inconclusive: 12.1%.
In the case of `CN1CCCN(C(=O)c2c(F)cccc2Cl)CC1`, the Potency is reported as active: 1640 nM.
With `Cc1ccc(CN2C(=O)C(CC(C)C)Nc3ncnc(N4CCN(c5ccccn5)CC4)c32)cc1` (stereo unspecified) the lipid storage change, negative = inhibition was inconclusive: 31%.
In the case of `COc1ccc(OC)c(S(=O)(=O)Nc2ccccc2C)c1`, the Potency is reported as inconclusive: 11600 nM [activator, single point].
With `CCOc1cccc2sc(N(CCN(C)C)C(=O)c3ccc4c(c3)OCCO4)nc12` the lipid storage change, negative = inhibition was inconclusive: -33.6%.
With `C/C(=N\NC(=O)c1ccc(N2CCCC2=O)cc1)c1ccccc1` the lipid storage change, negative = inhibition was inconclusive: 271%.
For `C/C(CC(=O)NC1CCCC1)=N\NC(=O)c1ccc([N+](=O)[O-])c(Cl)c1`, the lipid storage change, negative = inhibition was inconclusive: 0.505%.
With `COc1ccccc1NC(=S)NC1CC2CCC1C2` (stereo unspecified) the lipid storage change, negative = inhibition was inconclusive: 8.81%.
In the case of `O=C(Nc1cc(Cl)ccc1N1CCCC1)C1=COCCO1`, the lipid storage change, negative = inhibition is reported as inconclusive: 19%.
For `COc1ccc(Cl)cc1N1CCN(CCNC(=O)Nc2ccccc2C)CC1`, the Potency was inconclusive: 116 nM [activator, full curve, poor fit].
In the case of `Cc1ccc(NC(=O)Nc2ccccc2C(=O)NCc2ccccc2)cc1`, the Potency is reported as inconclusive: 3660 nM [rising, full curve, poor fit].
In the case of `COc1ccc(-c2nc(C#N)c(NCCCN3CCOCC3)o2)cc1`, the Potency is reported as inconclusive: 2060 nM [activator, partial curve, poor fit].
In the case of `COc1cc2nc(SCC(=O)NCCc3ccccc3)n(Cc3ccco3)c(=O)c2cc1OC`, the Potency is reported as inconclusive: 2060 nM [activator, full curve].
In the case of `CC[n+]1c(/C=C/Nc2ccccc2)oc2ccc(OC)cc21`, the Potency is reported as inconclusive: 11600 nM [falling, partial curve, poor fit].
In the case of `Cc1cc(C(=O)Nc2cc(Br)ccc2O)on1`, the lipid storage change, negative = inhibition is reported as inconclusive: -71.5%.
In the case of `CCOC(=O)c1ccc(CNCc2ccc(Br)cc2)cc1`, the lipid storage change, negative = inhibition is reported as inconclusive: -49.3%.
In the case of `COc1ccc(NC(=O)CN(C)S(=O)(=O)c2ccc3c(c2)n(C)c(=O)c(=O)n3C)cc1`, the Potency is reported as inconclusive: 6510 nM [rising, single point].
For `Cc1nn(CC(=O)N(C)Cc2ccc(F)cc2)c(C)c1[N+](=O)[O-]`, the lipid storage change, negative = inhibition was inconclusive: -1.95%.
For `Cc1nc2nc(SCC(=O)NCc3ccco3)nn2c(C)c1Cc1c(F)cccc1Cl`, the lipid storage change, negative = inhibition was inconclusive: -4.99%.
